# Measured values as given in the supplement of paper PMC5949888.
# Most values lie at the floor of the assay. Slopes are relative: functional sequences can read slightly below zero.
# System: Saccharomyces cerevisiae PS128 hsf1 delta, HSF1(1-493) fusion
# Assay: growth estimate (transactivation domain function in HSF1 fusion, heat-shock survival) (a.u. (slope of normalised read count over time)); higher = stronger growth at 37°C, i.e. more transactivation activity
# Conditions: library: random library
row,Substance,growth estimate
1,RIVR,< -0.25
2,RIW,< -0.25
3,RIWSGRRTDAILVYGSRTTA,< -0.25
4,RIYTTPTRLSKIGAGQQLVA,< -0.25
5,RKA,< -0.25
6,RKC,< -0.25
7,RKDTPPRKVTCRVLTKIHGR,< -0.25
8,RKEQLRSSACVYA,< -0.25
9,RKERLQRVFSVNLFGCP,< -0.25
10,RKESVPWQRHNGKWRHVGEE,< -0.25
11,RKGEVLEDTVC,< -0.25
12,RKGIRFRTMI,< -0.25
13,RKGRYCLRGTAFSGSLKWHG,< -0.25
14,RKGVDRAPTSAERRIKIELE,-0.0864
15,RKHGAEQAKVSNSREFSWTV,< -0.25
16,RKLGL,< -0.25
17,RKLHRGGITPGGVSLRGSSP,< -0.25
18,RKLLCSSRGRGA,< -0.25
19,RKLLSY,< -0.25
20,RKLYFYSVRTPAESTVGR,< -0.25
21,RKNEGIPCSLRHVTRLMGFL,-0.243
22,RKPESHLRFQNNGSRFMGYE,< -0.25
23,RKPGSPVRR,< -0.25
24,RKQFAD,< -0.25

row,Substance,growth estimate
1,RKQVGTCTTRDGLGWLGISP,-0.246
2,RKRCVTIPYNDRSDLWRLPI,< -0.25
3,RKRGHHLMYSVPPRVLV,< -0.25
4,RKSDSGKPVELACWSTGSGV,< -0.25
5,RKSIRRLGSV,< -0.25
6,RKSLG,< -0.25
7,RKSRVRREESRGSIGHTCQW,< -0.25
8,RKSSGLGLPAGIPWMPWALW,< -0.25
9,RKSYELLHFCRECSLSRLQG,< -0.25
10,RKT,< -0.25
11,RKTSAR,< -0.25
12,RKTTFLEP,< -0.25
13,RKVRWRNRFVERKMAHCGYV,< -0.25
14,RKVRYFAAFEDALQEMTWLR,< -0.25
15,RKWGQVRADSSQTVRPRFIR,< -0.25
16,RLAPAE,< -0.25
17,RLCVRLCSCLNR,< -0.25
18,RLCYREVNWQVLVVAEVLSP,< -0.25
19,RLDGDLEILSRVPLVAIVPA,< -0.25
20,RLDHSLHQFICPYDGTGSGE,< -0.25
21,RLDPKGVIDGSVSASTWSEC,< -0.25
22,RLDRVGVWTVVAKCGVFNSI,< -0.25
23,RLDSDRL,< -0.25
24,RLE,< -0.25

# A second format for part of the listing above:
row	Substance	growth estimate
21	RKNEGIPCSLRHVTRLMGFL	-0.243
22	RKPESHLRFQNNGSRFMGYE	< -0.25
23	RKPGSPVRR	< -0.25
24	RKQFAD	< -0.25

# Additional records

row,Substance,growth estimate
1,RLECERAIRFGLHVGRRNRN,-0.222
2,RLERVWTGHVLVEGFRPLHQ,< -0.25
3,RLF,< -0.25
4,RLFACRKYSPMGDHLPITRG,< -0.25
5,RLFCYNAPS,< -0.25
6,RLGASFSEVA,< -0.25
7,RLGELFS,< -0.25
8,RLGHIALGTGPRQGGPRS,< -0.25
9,RLGIVQTISM,< -0.25
10,RLGLSGGTLCTNLHRVTRPA,< -0.25
11,RLGRIVMRRGTIIPARQSLS,< -0.25
12,RLGSAGSFLGLSNTHCASKR,< -0.25
13,RLGTGHPPRRIEIWTSSMAP,< -0.25
14,RLGWPLGWVRSQVYAS,< -0.25
15,RLGYIPPVRRRP,< -0.25
16,RLGYQNIQE,< -0.25
17,RLHTYVANI,< -0.25
18,RLHWVVGTSAKMAVF,< -0.25
19,RLIDPSEFAAR,< -0.25
20,RLITICIEALPRSDESMDNR,< -0.25
21,RLKPASGADPIVAAHGSVST,< -0.25
22,RLLDALAS,< -0.25
23,RLLFPNSPSG,< -0.25
24,RLLGRPGSCPFLKP,< -0.25

row,Substance,growth estimate
1,RLLHVLGARVTQRLITYVTL,< -0.25
2,RLLKRLAWVASGGDCQVPPL,< -0.25
3,RLLLLLRPERGSLGVM,< -0.25
4,RLLLQLAGLRSESTSTI,< -0.25
5,RLLPNRSILNPRPELNTSKR,< -0.25
6,RLLRKSHLLAVS,< -0.25
7,RLMADAKKTGRLPGRAIYLL,< -0.25
8,RLMGFLIGDNVLSSPSYRQR,< -0.25
9,RLMRSRI,< -0.25
10,RLNAVTMLCSASTPVCGILR,< -0.25
11,RLNCQRHSS,< -0.25
12,RLNPGEFH,< -0.25
13,RLNSDILTVWYGKGIPATMN,< -0.25
14,RLP,< -0.25
15,RLPAACKSSSTISGVHSI,< -0.25
16,RLPIS,< -0.25
17,RLPLVGLGLLISRTLVIVAM,< -0.25
18,RLPRDTTNSRLPHRDSTGQV,< -0.25
19,RLPWTRCTEERGNSR,< -0.25
20,RLQAKRHIAYILQQVKFGRS,-0.248
21,RLQEKLLLGSGLGATVTRHT,< -0.25
22,RLQMR,< -0.25
23,RLQRSGRGIWE,< -0.25
24,RLQSQADVAGIAGNHILD,< -0.25

row,Substance,growth estimate
1,RLRCGKGWLGVKYWEALTPD,< -0.25
2,RLREGVKRANERGVFAAANV,< -0.25
3,RLRELTSQAEVRSTIELTSD,< -0.25
4,RLRFQAAPPFYGMSGGVTLS,< -0.25
5,RLRGLVSV,< -0.25
6,RLRQACLRGCAGVVTLVPWP,< -0.25
7,RLRS,< -0.25
8,RLRSVGERP,0.182
9,RLRYRTGRALPALVCALEDV,< -0.25
10,RLSEMLAHTLTIAGAFLGFS,< -0.25
11,RLSGSEVALRVWGGN,< -0.25
12,RLSGTSLNPSNTCEYGFQGV,< -0.25
13,RLSPSDIIQEFNSFCLPDLL,< -0.25
14,RLSRCLRAARKRLVRGLGEE,< -0.25
15,RLSS,-0.243
16,RLTALG,< -0.25
17,RLTATVCINSLSPRRQGKNV,< -0.25
18,RLTG,< -0.25
19,RLTNVLWSNPNLIVLRIL,< -0.25
20,RLTPFCIEGWARKPRIADID,< -0.25
21,RLTRGDDIGSFSRDVCKMWR,< -0.25
22,RLTSKISSLEASGVANYKCF,< -0.25
23,RLTVPPVTIIRYKDPPRPGA,< -0.25
24,RLTVREIRG,< -0.25

row,Substance,growth estimate
1,RLV,< -0.25
2,RLVASFTLRCRRKVARWVVS,< -0.25
3,RLVRTIPWPAGNCLRITR,< -0.25
4,RLWGSCSLGAETGSNGIGSL,-0.246
5,RLWRFRMSSPAFP,< -0.25
6,RLWTRTHVHSTSGVLARADL,< -0.25
7,RLWYFSRVCRDVGGAGGSPK,< -0.25
8,RLYQMVRNQYIIRAFLLLLP,< -0.25
9,RLYSEEIPFGEKGLHEVTTI,< -0.25
10,RMAKRARRL,< -0.25
11,RMDMGPRLSGLRVLVHFLLR,< -0.25
12,RMDNVSKRADKS,0.146
13,RMGRLSASGGATRLGLGDDV,< -0.25
14,RMGWMGPVYHVGVTSRGGCI,< -0.25
15,RMH,< -0.25
16,RMHERTREASRRCCLRHQWP,< -0.25
17,RMHPVLEF,< -0.25
18,RMIVQRRRTQVGVLLSCVAR,< -0.25
19,RMKSDPGELAIGSEPTFEID,< -0.25
20,RMLHGIGTPVLECEVERTWV,< -0.25
21,RMLKVTSNWYLRAY,< -0.25
22,RMLYDPDTKVDVGG,< -0.25
23,RMN,< -0.25
24,RMNLGLSGV,< -0.25

# Individual results from the results shown.
# In growth estimate, RLWGSCSLGAETGSNGIGSL is listed with -0.246
# In growth estimate, RMN is listed with < -0.25
# In growth estimate, RLWYFSRVCRDVGGAGGSPK is listed with < -0.25
# In growth estimate, RLYSEEIPFGEKGLHEVTTI is listed with < -0.25
# In growth estimate, RMLHGIGTPVLECEVERTWV is listed with < -0.25
